From paper PMC8184839
These are yes or no findings as the source states them, for the method shown. Some entries that bind do so weakly or less than the wild type.

Protein sequences, listed by entry. Tags and fused reporters are not part of them. Lines headed by an entry give the natural chain unless they say otherwise; changes in a name come on top.
UniProt P24385: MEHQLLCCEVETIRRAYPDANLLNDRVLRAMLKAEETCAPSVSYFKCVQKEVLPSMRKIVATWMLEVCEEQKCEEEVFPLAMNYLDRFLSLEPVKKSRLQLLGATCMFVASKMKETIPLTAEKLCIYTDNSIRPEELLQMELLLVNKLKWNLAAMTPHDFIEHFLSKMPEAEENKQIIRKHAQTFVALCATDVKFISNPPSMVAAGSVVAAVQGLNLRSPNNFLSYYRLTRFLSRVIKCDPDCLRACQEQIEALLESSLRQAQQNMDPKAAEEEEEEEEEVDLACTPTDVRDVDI
UniProt P30279: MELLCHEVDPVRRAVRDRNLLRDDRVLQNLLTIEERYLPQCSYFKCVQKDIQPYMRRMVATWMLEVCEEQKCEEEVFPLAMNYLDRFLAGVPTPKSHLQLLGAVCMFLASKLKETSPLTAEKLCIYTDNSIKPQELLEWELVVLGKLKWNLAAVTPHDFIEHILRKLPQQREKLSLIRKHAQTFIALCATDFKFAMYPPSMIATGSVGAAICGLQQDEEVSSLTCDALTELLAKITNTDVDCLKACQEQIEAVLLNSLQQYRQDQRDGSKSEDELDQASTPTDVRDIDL
UniProt P11802: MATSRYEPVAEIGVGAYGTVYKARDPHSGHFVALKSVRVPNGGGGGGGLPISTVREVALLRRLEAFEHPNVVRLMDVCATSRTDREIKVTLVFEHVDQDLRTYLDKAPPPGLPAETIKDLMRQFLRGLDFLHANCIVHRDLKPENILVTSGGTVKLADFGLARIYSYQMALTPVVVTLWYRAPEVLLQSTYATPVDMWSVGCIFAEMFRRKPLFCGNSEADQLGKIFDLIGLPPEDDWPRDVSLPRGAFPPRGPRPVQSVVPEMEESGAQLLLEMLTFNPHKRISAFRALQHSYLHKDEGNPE
UniProt Q00534: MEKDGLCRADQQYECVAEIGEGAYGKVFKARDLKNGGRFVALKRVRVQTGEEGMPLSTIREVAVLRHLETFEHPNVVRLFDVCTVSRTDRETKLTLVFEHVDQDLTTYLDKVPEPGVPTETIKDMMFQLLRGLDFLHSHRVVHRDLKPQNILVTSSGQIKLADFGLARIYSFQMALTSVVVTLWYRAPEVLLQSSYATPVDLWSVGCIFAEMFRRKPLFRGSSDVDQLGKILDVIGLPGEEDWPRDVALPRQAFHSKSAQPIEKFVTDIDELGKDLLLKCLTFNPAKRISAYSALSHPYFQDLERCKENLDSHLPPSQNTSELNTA
UniProt P38936: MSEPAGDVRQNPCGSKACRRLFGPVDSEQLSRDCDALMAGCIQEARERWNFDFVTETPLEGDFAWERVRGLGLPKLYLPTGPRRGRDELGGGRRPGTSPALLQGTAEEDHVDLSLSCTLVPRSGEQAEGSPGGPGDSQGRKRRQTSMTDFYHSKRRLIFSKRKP
UniProt P46527: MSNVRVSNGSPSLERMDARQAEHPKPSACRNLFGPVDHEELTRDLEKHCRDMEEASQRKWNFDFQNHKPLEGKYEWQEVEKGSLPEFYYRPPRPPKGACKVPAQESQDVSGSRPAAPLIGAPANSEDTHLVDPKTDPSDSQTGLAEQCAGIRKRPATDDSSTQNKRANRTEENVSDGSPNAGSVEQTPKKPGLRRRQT

What was measured:
[1] = target: cyclin D1-CDK6 (mVenus-cyclin D1 with CDK6-mTurquoise-Δ50 lamin A) (UniProt P24385); assay: recruitment to a CDK tethered at the inner nuclear membrane, with FRAP; as a4 but with 6 µM palbociclib overnight and throughout, or 6 µM palbociclib, ribociclib or abemaciclib added acutely about 4-5 min after photobleaching
[2] = target: cyclin D2-CDK4 (UniProt P30279); assay: as above
[3] = target: cyclin D1-CDK4 (mVenus-cyclin D1 with CDK4-mTurquoise-Δ50 lamin A) (UniProt P24385); assay: recruitment to a CDK tethered at the inner nuclear membrane, with FRAP; live RPE-1 cells with mVenus-cyclin, CDK-mTurquoise-Δ50 lamin A and mRuby3-p21, mRuby3-p27 or p21KID co-expressed; no CDK4/6 inhibitor (untreated or DMSO); recovery of the cyclin or of p21/p27 over 15 min after photobleaching; 37 °C
[4] = target: cyclin D1-CDK6 (mVenus-cyclin D1 with CDK6-mTurquoise-Δ50 lamin A) (UniProt P24385); assay: as above
[5] = target: cyclin D1-CDK4 (mVenus-cyclin D1 with CDK4-mTurquoise-Δ50 lamin A) (UniProt P24385); assay: recruitment to a CDK tethered at the inner nuclear membrane, with FRAP; as a4 but with 6 µM palbociclib overnight and throughout, or 6 µM palbociclib, ribociclib or abemaciclib added acutely about 4-5 min after photobleaching
[6] = target: CDK4-mTurquoise-Δ50 lamin A (UniProt P11802); assay: recruitment to a CDK tethered at the inner nuclear membrane; RPE-1 cells with cyclin D1 and tethered CDK4, co-knockdown of p21/p27 and overnight treatment with palbociclib (6 µM)
[7] = target: CDK4-mTurquoise-Δ50 lamin A (UniProt P11802); assay: recruitment to a CDK tethered at the inner nuclear membrane; p21/p27 double-knockout MEFs transfected with cyclin D1 and CDK4 constructs; imaged without the cytoskeleton drug cocktail
[8] = target: CDK4-mTurquoise-Δ50 lamin A (UniProt P11802); assay: recruitment to a CDK tethered at the inner nuclear membrane, with FRAP; as a4 but with 6 µM palbociclib overnight and throughout, or 6 µM palbociclib, ribociclib or abemaciclib added acutely about 4-5 min after photobleaching
[9] = target: CDK4-mTurquoise-Δ50 lamin A (UniProt P11802); assay: recruitment to a CDK tethered at the inner nuclear membrane, with FRAP; live RPE-1 cells with mVenus-cyclin, CDK-mTurquoise-Δ50 lamin A and mRuby3-p21, mRuby3-p27 or p21KID co-expressed; no CDK4/6 inhibitor (untreated or DMSO); recovery of the cyclin or of p21/p27 over 15 min after photobleaching; 37 °C
[10] = target: CDK6-mTurquoise-Δ50 lamin A (UniProt Q00534); assay: recruitment to a CDK tethered at the inner nuclear membrane, with FRAP; live RPE-1 cells with mVenus-cyclin and CDK-mTurquoise-Δ50 lamin A, p21 and p27 depleted by siRNA co-knockdown; recovery of mVenus after photobleaching; 37 °C
[11] = target: CDK6-mTurquoise-Δ50 lamin A (UniProt Q00534); assay: recruitment to a CDK tethered at the inner nuclear membrane, with FRAP; live RPE-1 cells with mVenus-cyclin, CDK-mTurquoise-Δ50 lamin A and mRuby3-p21, mRuby3-p27 or p21KID co-expressed; no CDK4/6 inhibitor (untreated or DMSO); recovery of the cyclin or of p21/p27 over 15 min after photobleaching; 37 °C

Row | Substance | binding [1] | binding [3] | binding [4] | binding [5] | further results
1 | mVenus-cyclin D1 (from UniProt P24385 1-295) | – | – | – | – | binding [6]: binds; binding [7]: binds; binding [8]: binds; binding [9]: binds
2 | mVenus-cyclin D1 (from UniProt P24385 1-295) (other; other documents disagree on this pair) | – | – | – | – | binding [10]: binds; binding [11]: binds
3 | p21KID (amino acids 14-81) (from UniProt P38936 14-81) (domain or fragment) | binds | binds | binds | binds weakly | –

The next lines start with results.

Row | binding [1] | binding [3] | binding [4] | binding [5] | Substance | further results
4 | binds | binds | binds | – | mRuby3-p21 (from UniProt P38936 1-164) | binding [2]: binds weakly
5 | binds | binds | binds | binds | mRuby3-p27 (from UniProt P46527 1-198) | –
